# Results reported in the supplement of paper PMC12067093, “Discovery and optimisation of a covalent ligand for TRIM25 and its application to targeted protein ubiquitination” (Chemical Science, 2025).
# The chains behind the UniProt entries cited, without tags or fusion partners. Where a name states a change or a piece, a line headed by the entry shows the natural chain unless it says otherwise.
# UniProt Q0P6H9: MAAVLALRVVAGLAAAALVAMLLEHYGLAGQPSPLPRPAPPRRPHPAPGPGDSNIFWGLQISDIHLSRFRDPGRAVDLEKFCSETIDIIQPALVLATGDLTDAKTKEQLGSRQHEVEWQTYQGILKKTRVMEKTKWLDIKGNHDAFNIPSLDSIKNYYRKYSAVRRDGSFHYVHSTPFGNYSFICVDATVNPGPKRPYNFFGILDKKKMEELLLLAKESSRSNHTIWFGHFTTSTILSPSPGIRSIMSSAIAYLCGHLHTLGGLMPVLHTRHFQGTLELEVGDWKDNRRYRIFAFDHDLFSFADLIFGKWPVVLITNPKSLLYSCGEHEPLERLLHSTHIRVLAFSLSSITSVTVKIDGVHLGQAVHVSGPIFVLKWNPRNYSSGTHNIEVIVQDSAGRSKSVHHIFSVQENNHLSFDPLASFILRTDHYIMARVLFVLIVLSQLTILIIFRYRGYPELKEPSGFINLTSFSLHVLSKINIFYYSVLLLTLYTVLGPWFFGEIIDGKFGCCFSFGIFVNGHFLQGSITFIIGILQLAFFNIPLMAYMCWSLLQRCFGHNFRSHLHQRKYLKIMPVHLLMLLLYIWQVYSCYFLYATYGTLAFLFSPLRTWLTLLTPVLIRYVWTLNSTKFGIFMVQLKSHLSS
# UniProt Q9NS56: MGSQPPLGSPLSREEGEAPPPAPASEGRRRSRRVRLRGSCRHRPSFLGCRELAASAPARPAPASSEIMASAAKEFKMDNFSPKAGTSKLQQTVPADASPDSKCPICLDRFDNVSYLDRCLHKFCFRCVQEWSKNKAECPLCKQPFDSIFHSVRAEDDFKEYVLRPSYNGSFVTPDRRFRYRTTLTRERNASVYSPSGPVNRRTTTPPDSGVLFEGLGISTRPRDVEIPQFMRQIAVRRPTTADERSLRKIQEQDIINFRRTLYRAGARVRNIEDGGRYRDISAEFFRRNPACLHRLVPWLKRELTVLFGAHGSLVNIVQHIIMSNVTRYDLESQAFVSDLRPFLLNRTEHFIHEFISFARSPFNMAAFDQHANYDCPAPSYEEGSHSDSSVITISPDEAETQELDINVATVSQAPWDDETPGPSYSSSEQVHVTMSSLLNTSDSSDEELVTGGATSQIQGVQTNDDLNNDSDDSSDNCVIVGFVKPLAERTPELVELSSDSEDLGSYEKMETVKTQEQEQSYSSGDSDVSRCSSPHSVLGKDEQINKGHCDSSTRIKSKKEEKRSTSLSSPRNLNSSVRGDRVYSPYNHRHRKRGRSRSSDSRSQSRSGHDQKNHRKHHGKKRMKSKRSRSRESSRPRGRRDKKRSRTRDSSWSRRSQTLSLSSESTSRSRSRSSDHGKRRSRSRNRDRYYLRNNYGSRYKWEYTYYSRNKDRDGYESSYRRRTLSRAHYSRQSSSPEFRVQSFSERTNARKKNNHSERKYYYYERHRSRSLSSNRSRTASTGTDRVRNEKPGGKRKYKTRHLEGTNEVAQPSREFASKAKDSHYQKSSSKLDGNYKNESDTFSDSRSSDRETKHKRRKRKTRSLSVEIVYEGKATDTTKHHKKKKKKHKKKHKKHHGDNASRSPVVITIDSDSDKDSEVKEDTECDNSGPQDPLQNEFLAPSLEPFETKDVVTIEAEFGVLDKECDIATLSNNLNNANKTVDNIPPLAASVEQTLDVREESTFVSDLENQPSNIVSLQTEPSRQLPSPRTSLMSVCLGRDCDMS
# UniProt Q9Y490: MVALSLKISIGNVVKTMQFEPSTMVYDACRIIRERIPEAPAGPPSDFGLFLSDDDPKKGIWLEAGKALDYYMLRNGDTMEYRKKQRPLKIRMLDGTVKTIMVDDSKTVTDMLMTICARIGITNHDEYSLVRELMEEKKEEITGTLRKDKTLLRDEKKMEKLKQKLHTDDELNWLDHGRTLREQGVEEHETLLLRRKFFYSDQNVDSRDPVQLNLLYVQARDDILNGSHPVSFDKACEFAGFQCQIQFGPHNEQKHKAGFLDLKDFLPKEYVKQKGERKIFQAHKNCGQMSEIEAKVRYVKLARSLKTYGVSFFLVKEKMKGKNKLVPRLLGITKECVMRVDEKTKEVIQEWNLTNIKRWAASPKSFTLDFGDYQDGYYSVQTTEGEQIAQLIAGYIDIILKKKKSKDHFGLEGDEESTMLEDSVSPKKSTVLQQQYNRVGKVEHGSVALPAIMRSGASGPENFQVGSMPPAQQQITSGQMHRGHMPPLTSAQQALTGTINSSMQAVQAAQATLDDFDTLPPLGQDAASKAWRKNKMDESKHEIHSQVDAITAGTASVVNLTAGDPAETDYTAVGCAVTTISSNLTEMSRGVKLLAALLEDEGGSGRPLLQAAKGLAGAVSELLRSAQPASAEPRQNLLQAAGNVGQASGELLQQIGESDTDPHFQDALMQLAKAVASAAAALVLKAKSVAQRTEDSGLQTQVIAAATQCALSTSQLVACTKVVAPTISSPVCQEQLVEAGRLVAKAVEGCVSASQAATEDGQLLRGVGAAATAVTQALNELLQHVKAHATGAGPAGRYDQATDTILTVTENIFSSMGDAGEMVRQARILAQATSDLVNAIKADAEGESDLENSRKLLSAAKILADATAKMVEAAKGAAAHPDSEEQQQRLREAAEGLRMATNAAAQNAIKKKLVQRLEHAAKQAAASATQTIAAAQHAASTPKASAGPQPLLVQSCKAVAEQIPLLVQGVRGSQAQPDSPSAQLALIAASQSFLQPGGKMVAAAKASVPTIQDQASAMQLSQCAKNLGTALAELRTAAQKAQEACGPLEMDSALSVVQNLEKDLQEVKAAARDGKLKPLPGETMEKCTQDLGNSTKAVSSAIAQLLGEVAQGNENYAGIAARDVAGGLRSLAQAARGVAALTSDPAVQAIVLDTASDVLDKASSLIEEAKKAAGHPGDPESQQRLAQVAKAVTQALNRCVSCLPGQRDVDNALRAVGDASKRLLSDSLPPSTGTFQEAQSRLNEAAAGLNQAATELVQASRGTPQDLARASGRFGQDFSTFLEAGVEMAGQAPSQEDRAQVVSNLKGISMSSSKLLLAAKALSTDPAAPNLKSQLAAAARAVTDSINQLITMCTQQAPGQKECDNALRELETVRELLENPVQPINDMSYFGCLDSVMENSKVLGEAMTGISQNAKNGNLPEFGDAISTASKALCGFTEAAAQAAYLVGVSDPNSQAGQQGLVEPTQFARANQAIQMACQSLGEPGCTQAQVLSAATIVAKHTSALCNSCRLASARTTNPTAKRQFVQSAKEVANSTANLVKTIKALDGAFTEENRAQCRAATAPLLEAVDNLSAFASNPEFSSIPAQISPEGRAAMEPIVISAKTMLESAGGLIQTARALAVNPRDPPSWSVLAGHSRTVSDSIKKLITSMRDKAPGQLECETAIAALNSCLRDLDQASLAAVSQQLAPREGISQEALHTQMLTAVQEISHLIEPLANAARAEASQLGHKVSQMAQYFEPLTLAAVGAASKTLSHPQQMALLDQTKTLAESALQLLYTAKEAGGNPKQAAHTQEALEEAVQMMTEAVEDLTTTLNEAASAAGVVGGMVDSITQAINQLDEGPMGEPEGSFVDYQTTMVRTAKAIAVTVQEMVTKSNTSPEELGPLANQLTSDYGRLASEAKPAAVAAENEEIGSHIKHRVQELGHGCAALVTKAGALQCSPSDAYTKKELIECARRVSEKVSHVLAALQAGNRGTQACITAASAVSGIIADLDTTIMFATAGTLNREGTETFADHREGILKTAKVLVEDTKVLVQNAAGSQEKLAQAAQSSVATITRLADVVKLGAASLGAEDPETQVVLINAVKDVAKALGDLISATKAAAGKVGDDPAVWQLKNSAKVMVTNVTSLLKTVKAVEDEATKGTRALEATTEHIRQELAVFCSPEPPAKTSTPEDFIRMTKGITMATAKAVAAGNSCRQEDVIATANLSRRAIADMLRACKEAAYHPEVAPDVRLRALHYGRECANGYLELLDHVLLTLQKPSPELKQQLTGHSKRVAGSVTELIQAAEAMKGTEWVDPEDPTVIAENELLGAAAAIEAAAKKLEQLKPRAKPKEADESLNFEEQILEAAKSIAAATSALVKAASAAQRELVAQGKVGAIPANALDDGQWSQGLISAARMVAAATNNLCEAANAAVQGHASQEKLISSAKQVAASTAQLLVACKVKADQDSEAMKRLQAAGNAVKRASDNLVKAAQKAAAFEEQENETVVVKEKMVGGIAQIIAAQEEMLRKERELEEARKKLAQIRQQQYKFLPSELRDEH
# UniProt P11388: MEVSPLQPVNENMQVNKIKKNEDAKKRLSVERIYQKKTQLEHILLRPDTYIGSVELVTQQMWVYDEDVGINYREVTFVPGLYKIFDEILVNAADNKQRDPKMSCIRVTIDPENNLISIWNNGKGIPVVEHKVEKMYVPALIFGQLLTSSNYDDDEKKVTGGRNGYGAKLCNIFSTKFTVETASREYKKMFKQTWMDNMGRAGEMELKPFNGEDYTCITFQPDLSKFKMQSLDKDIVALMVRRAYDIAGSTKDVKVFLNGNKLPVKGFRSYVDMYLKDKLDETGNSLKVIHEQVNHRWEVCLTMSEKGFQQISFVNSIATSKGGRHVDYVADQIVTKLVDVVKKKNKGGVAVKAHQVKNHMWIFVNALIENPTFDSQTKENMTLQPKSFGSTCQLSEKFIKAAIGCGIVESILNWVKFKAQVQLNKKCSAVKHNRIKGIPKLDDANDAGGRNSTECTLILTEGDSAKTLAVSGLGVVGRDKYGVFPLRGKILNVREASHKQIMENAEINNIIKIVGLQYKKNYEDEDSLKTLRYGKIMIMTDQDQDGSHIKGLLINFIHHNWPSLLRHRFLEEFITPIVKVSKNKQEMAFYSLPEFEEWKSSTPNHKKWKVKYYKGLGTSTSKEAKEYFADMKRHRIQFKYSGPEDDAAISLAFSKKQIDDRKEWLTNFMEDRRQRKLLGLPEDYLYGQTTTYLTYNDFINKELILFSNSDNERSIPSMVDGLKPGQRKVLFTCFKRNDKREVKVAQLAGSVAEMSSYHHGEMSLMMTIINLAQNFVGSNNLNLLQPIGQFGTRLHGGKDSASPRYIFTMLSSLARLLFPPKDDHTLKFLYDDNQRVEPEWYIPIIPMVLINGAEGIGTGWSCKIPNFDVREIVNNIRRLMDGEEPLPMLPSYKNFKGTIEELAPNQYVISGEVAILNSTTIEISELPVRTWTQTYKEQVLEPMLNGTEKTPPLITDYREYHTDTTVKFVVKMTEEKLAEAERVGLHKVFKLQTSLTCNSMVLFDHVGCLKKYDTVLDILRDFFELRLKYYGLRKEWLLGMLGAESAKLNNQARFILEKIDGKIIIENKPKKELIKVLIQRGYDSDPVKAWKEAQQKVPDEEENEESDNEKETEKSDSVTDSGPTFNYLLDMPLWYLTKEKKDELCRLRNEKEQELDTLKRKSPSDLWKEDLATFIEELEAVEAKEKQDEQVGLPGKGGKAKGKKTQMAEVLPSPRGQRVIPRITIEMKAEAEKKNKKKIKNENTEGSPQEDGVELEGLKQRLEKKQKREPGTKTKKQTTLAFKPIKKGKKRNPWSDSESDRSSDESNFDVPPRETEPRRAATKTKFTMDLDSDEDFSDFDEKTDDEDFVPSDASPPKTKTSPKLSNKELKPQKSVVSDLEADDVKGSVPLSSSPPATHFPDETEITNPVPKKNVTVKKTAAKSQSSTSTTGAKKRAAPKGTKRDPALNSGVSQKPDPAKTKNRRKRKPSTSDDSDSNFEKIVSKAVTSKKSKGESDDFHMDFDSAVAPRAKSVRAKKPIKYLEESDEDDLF
# UniProt Q9H497: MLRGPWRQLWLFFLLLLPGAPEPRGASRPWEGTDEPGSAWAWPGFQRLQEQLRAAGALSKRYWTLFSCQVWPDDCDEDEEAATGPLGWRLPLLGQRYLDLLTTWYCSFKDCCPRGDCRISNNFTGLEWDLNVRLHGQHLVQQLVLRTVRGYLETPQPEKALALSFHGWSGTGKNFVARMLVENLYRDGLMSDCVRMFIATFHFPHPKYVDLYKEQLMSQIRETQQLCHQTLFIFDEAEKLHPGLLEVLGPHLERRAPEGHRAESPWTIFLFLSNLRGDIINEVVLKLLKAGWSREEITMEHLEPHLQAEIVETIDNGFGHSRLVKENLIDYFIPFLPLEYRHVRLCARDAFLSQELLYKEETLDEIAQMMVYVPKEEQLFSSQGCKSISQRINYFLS
# UniProt Q7Z7H5: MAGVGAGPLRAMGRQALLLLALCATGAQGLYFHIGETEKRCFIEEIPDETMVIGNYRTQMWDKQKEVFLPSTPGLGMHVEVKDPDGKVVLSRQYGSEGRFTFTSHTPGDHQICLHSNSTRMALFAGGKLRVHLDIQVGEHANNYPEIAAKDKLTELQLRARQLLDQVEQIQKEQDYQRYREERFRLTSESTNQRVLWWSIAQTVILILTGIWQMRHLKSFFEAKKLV
# This is one part of the list.
# Compound: CC1Cc2ccccc2N1C(=O)C1CCCN(C1)C(=O)CCl (mixture of isomers) [TRIM25 ligand 11 (diastereomer mixture)]
# Assay: probe-labelled cysteine peptide fold change vs DMSO (competition) (log2 fold change); higher = less target engagement (more negative = stronger competition)
# Conditions: 50 µM; THP-1; incubation time: 4 h
# 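Note: competitive chemoproteomic profiling in live THP-1 cells with an iodoacetamide desthiobiotin (IA-DTB) probe, comparing probe-labelled peptide intensities in compound-treated cells against DMSO-treated controls.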
row,Target,probe-labelled cysteine peptide fold change
1,TMEM106B_Q9NUM4_61+64_DSVTCPTCQGTGR (UniProt Q9NUM4),-0.005
2,TOP3B_O95985_442_IGPELFTCSGK (UniProt O95985),0.124
3,TOP1_P11387_504+505_EEGETADTVGCCSLR (UniProt P11387),0.122
4,TLN2_Q9Y4G6_289_NCGEMSEIEAK (UniProt Q9Y4G6),0.0134
5,TMEM62_Q0P6H9_325_SLLYSCGEHEPLER (UniProt Q0P6H9),-0.1
6,TOPORS_Q9NS56_550_GHCDSSTR (UniProt Q9NS56),-0.426
7,TNS3_Q68CZ2_227_ICIVIEPAQLLK (UniProt Q68CZ2),-0.0238
8,TLN1_Q9Y490_1939_AGALQCSPSDAYTK (UniProt Q9Y490),-0.0498
9,TOP2A_P11388_1145_EKKDELCR (UniProt P11388),-0.292
10,TOR3A_Q9H497_193_DGLMSDCVR (UniProt Q9H497),0.187
11,TOPORS_Q9NS56_49_HRPSFLGCR (UniProt Q9NS56),-0.342
12,TMEM131L_A2VDJ0_352_IASFTCK (UniProt A2VDJ0),0.0434
13,TOP2A_P11388_1145_KDELCR (UniProt P11388),-0.0548
14,TNPO1_Q92973_683_SNILTLMYQCMQDK (UniProt Q92973),-0.108
15,TOPBP1_Q92547_1284_IDYCHLIEK (UniProt Q92547),0.113
16,TMED4_Q7Z7H5_41_RCFIEEIPDETMVIGNYR (UniProt Q7Z7H5),0.12
17,TONSL_Q96HA7_231_ECAHTMR (UniProt Q96HA7),0.184

# A few values from the list:
# Under probe-labelled cysteine peptide fold change, TOR3A_Q9H497_193_DGLMSDCVR (UniProt Q9H497) shows 0.187
# Under probe-labelled cysteine peptide fold change, TMEM62_Q0P6H9_325_SLLYSCGEHEPLER (UniProt Q0P6H9) shows -0.1
